Data as given in PubChem BioAssay AID1508597 (Cure First, 2020)

Assay: 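Genes whose silencing sensitises or protects ovarian cancer cells against rucaparib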 (primary screen)
System: human ovarian carcinoma lines grown from tumours: OCI-P5x (papillary serous) and OCI-C5x (clear cell)
Reagents: siRNA pool against human genes, 1.25 pmol siRNA per well
Time to read-out: 72 h or 96 h, depending on the cell culture
Conditions: rucaparib 20 µM (about IC30) or vehicle, present until read-out
Rucaparib or vehicle: Rucaparib
Cell line: OCI-C5x (clear cell)
Detection: 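Luminescent ATP-based viability assay read 72 or 96 h after transfection, depending on culture, given as normalised percent viability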
Scale: viability, normalised: higher = more viable cells remaining
Call rule: 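a well counts as a hit if its normalised viability is under 80 percent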
Calls: active = viability under 80%; inactive = viability 80% or more
Shown is a random part of the about 2,100 reagents, in one setting of the screen. 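Calls flag viability under 80% in either arm, not effects specific to rucaparib; the reference for percent is not stated.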 Some reagents were tested in more than one well and are listed for each. The record does not give: the 100% reference.

PCDHB6 (protocadherin beta 6), technical replicate 1 showed viability, normalised (%) = 70.3; active.
PCDHB6 (protocadherin beta 6), technical replicate 2 gave viability, normalised (%) = 45.1; active.
PCDHB6 (protocadherin beta 6), technical replicate 3 gave viability, normalised (%) = 38.5; active.
For SMARCAL1 (SNF2 related chromatin remodeling annealing helicase 1), technical replicate 1, the values are viability, normalised (%) = 63.8; active.
SMARCAL1 (SNF2 related chromatin remodeling annealing helicase 1), technical replicate 1 showed viability, normalised (%) = 43.6; active.
SMARCAL1 (SNF2 related chromatin remodeling annealing helicase 1), technical replicate 2 scored viability, normalised (%) = 34.1; active.
SMARCAL1 (SNF2 related chromatin remodeling annealing helicase 1), technical replicate 2 gave viability, normalised (%) = 70.1; active.
SMARCAL1 (SNF2 related chromatin remodeling annealing helicase 1), technical replicate 3 scored viability, normalised (%) = 54.2; active.
SMARCAL1 (SNF2 related chromatin remodeling annealing helicase 1), technical replicate 3 gave viability, normalised (%) = 43.3; active.
For BRD3 (bromodomain containing 3), technical replicate 1 the deposit lists viability, normalised (%) = 23.7; active.
With BRD3 (bromodomain containing 3), technical replicate 1, the entry reads viability, normalised (%) = 55; active.
BRD3 (bromodomain containing 3), technical replicate 2 scored viability, normalised (%) = 11.8; active.
For BRD3 (bromodomain containing 3), technical replicate 2, the values are viability, normalised (%) = 39.5; active.
With BRD3 (bromodomain containing 3), technical replicate 3 the deposit lists viability, normalised (%) = 26.3; active.
BRD3 (bromodomain containing 3), technical replicate 3 scored viability, normalised (%) = 14; active.

Sorted by “viability, normalised (%)” (highest first): some entries from above
SMARCAL1 (SNF2 related chromatin remodeling annealing helicase 1), technical replicate 3 → viability, normalised (%): 43.3; activity call: active
BRD3 (bromodomain containing 3), technical replicate 1 → viability, normalised (%): 23.7; activity call: active

Further records follow:
POLR3K (RNA polymerase III subunit K), technical replicate 1 scored viability, normalised (%) = 38.9; active.
For POLR3K (RNA polymerase III subunit K), technical replicate 2 the deposit lists viability, normalised (%) = 45.9; active.
With POLR3K (RNA polymerase III subunit K), technical replicate 3 the deposit lists viability, normalised (%) = 40; active.
With RPS6KB2 (ribosomal protein S6 kinase B2), technical replicate 1, the entry reads viability, normalised (%) = 71; active.
RPS6KB2 (ribosomal protein S6 kinase B2), technical replicate 2 scored viability, normalised (%) = 55.6; active.
For RPS6KB2 (ribosomal protein S6 kinase B2), technical replicate 3, the values are viability, normalised (%) = 59.9; active.
For SUV39H1 (SUV39H1 histone lysine methyltransferase), technical replicate 1, the values are viability, normalised (%) = 51.6; active.
SUV39H1 (SUV39H1 histone lysine methyltransferase), technical replicate 1 scored viability, normalised (%) = 49.9; active.
SUV39H1 (SUV39H1 histone lysine methyltransferase), technical replicate 2 gave viability, normalised (%) = 61.5; active.
SUV39H1 (SUV39H1 histone lysine methyltransferase), technical replicate 2 scored viability, normalised (%) = 34.2; active.
SUV39H1 (SUV39H1 histone lysine methyltransferase), technical replicate 3 gave viability, normalised (%) = 59.1; active.
SUV39H1 (SUV39H1 histone lysine methyltransferase), technical replicate 3 showed viability, normalised (%) = 35.4; active.
With CA14 (carbonic anhydrase 14), technical replicate 1, the entry reads viability, normalised (%) = 60.4; active.
CA14 (carbonic anhydrase 14), technical replicate 2 showed viability, normalised (%) = 61.4; active.
With CA14 (carbonic anhydrase 14), technical replicate 3, the values are viability, normalised (%) = 54.9; active.
TERF1 (telomeric repeat binding factor 1), technical replicate 1 showed viability, normalised (%) = 42.9; active.
TERF1 (telomeric repeat binding factor 1), technical replicate 1 showed viability, normalised (%) = 35.6; active.
For TERF1 (telomeric repeat binding factor 1), technical replicate 2, the entry reads viability, normalised (%) = 44.4; active.
TERF1 (telomeric repeat binding factor 1), technical replicate 2 gave viability, normalised (%) = 35.7; active.
For TERF1 (telomeric repeat binding factor 1), technical replicate 3, the values are viability, normalised (%) = 50; active.
TERF1 (telomeric repeat binding factor 1), technical replicate 3 scored viability, normalised (%) = 31; active.
